{
  "sequences": {"note": "Protein sequences, listed by entry. Tags and fused reporters are not part of them. Residues count along the entry.", "UniProt P43220, residues 24-463": "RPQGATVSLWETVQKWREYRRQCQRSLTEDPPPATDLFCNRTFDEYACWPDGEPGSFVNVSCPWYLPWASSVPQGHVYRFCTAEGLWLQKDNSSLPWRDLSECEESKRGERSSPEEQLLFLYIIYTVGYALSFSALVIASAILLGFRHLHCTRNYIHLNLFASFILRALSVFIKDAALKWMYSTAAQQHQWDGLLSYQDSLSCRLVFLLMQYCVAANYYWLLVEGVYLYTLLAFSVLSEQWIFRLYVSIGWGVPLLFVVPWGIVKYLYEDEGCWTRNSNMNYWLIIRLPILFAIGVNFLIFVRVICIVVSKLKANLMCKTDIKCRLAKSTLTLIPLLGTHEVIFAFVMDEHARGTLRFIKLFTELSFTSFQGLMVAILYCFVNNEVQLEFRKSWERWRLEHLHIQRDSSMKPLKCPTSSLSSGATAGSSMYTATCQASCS", "UniProt P32121": "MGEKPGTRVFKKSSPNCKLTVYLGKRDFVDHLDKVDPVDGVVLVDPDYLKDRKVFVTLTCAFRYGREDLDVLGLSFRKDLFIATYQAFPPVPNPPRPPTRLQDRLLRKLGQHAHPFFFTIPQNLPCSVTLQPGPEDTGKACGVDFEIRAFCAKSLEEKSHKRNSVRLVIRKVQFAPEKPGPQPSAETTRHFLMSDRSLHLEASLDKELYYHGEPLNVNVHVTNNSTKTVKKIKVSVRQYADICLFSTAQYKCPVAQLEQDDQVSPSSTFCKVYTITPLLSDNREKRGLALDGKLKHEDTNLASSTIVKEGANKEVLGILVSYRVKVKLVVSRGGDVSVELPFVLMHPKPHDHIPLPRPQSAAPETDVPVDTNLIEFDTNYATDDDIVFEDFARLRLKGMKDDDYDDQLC"},
  "source": "paper PMC8975272",
  "about": "“Novel glucagon-like peptide-1 analogue exhibits potency-driven G-protein biased agonism with promising effects on diabetes and diabetic dry eye syndrome” (Bioengineered, 2022)",
  "molecular_target": "GLP-1R in PathHunter CHO-K1-βarr2-EA-GLP-1R cells (UniProt P43220)",
  "assay": "split reporter; PathHunter CHO-K1-βarr2-EA-GLP-1R cells stimulated with agonist (SM102 or Semaglutide) for 30 min at 37°C in Ham's F12 medium without FBS; lysed with PathHunter detection reagents, luminescence read",
  "note": "These are yes or no findings as the source states them, for the method shown. Binding seen in cells or lysates may run through a third protein. Some entries that bind do so weakly or less than the wild type.",
  "data": [
    {"substance": "β-arrestin-2 in PathHunter CHO-K1-βarr2-EA-GLP-1R cells (from UniProt P32121 1-409)", "values": [
      {"measurement": "binding", "value": "binds"}
    ]}
  ]
}
